Mtb growth Cornell: 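Whole-cell assay for inhibitors of Mycobacterium tuberculosis growth, labelled Cornell in the record; the read-out is not stated. The concentration is filed as 10 mM, unlikely as a test dose, so the dose is not known. Higher means stronger inhibition (inferred from two other growth screens of the library). About 53,000 compounds were tested under these conditions; 1.7% (about 900) showed 50% or more at least once.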
Mtb heat-shock: 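Assay on Mycobacterium tuberculosis, filed only as a heat shock assay from Cornell; the read-out is not stated. The concentration is filed as 10 mM, unlikely as a test dose, so the dose is not known. Direction is inferred from retests: higher values go with stronger inhibition. About 69,000 compounds were tested under these conditions; 1.4% (about 930) showed 50% or more at least once.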

Values are the deposited “Percent Effect”, in %.
How 0% and 100% were set is not recorded. Most values in the screen are low, and negative values occur.
Compounds were drawn at random from those tested, without regard to their results.
A dash means the value is not listed here; it may have been measured.

For CCN(CC)CCNCC1CCOC(C)(C)C1 (stereo unspecified) the result was Mtb heat-shock: -18.93%. CCc1nnc(CN2CCCC(c3cc(C(N)=O)[nH]n3)C2)o1 (stereo unspecified) read Mtb growth Cornell: 11.68%; Mtb heat-shock: -14.44%. O=C(O)C(F)(F)F.O=C(O)C(F)(F)F.[H][C@]12CCC[C@@H](CN(C)C)[C@@]1([H])CN(Cc1ccc(OC)nc1)C2 read Mtb growth Cornell: -18.31%; Mtb heat-shock: -18.14%. O=C(c1n[nH]c(=O)c2ccccc12)N1CCCC1Cn1cccn1 (stereo unspecified) gave Mtb heat-shock: -18.64%. With CCN(CCc1nccs1)C(=O)c1ncoc1C the screen gave Mtb growth Cornell: -9.345%; Mtb heat-shock: 1.957%.

Result for CCn1nc(C)cc1C(=O)Nc1cc(F)ccc1OCC1CCCO1 (stereo unspecified) was Mtb heat-shock: 2.453%. CCOc1ncccc1CNC(=O)c1csc(Br)c1 read Mtb growth Cornell: 4.872%; Mtb heat-shock: 12.07%. Result for O=C(Nc1ccc(S(=O)(=O)Nc2ccccc2)cc1)N1CCCC1 was Mtb growth Cornell: -8.387%; Mtb heat-shock: 9.039%. O=C1CCC2(CCN(CC[C@@H](O)c3ccccc3)CC2)CN1CC1CC1 read Mtb heat-shock: -13.14%. With O=C(O)C(F)(F)F.O=C(O)C(F)(F)F.O=C(O)C(F)(F)F.[H][C@@]12CN(Cc3ccncc3)C[C@@]1([H])N(Cc1ccncc1)C(=O)CO2 the screen gave Mtb growth Cornell: 15.2%; Mtb heat-shock: -33.4%.

With c1ccc(-c2nc(CCNCc3ccncc3)co2)cc1 the screen gave Mtb growth Cornell: -12.86%; Mtb heat-shock: 2.698%. OCCCN1CCCC1c1ccc(Br)cc1 (stereo unspecified) read Mtb growth Cornell: 39.4%; Mtb heat-shock: -5.161%. With COCCC(=O)N1CCCC1c1nc(C)c2c(n1)N(C)C(=O)CC2 (stereo unspecified) the screen gave Mtb growth Cornell: 9.481%; Mtb heat-shock: -6.587%. For Clc1ccc(CN2CCC(C3CCN(Cc4cccnc4)CC3)C2)cc1 (stereo unspecified) the result was Mtb growth Cornell: 9.672%; Mtb heat-shock: -2.469%. CCOc1ccccc1CC(=O)N1C[C@@H](C(=O)O)[C@H](C2CC2)C1 read Mtb growth Cornell: 28.45%; Mtb heat-shock: 9.133%.

With CS(=O)(=O)NCC1CCCN(C(=O)c2ccc3c(c2)CCCC3)C1 (stereo unspecified) the screen gave Mtb growth Cornell: -5.234%; Mtb heat-shock: -18.91%. For c1cnn(CC2CCCN2c2ncnc3sccc23)c1 (stereo unspecified) the result was Mtb growth Cornell: 3.554%; Mtb heat-shock: 19.61%. For CC(=O)N1CCCC1c1cccc(Cc2ccccc2Cl)n1 (stereo unspecified) the result was Mtb growth Cornell: 13.47%; Mtb heat-shock: -4.878%. Result for Cc1ccc(CSc2nc(N)cc(NCCS(=O)(=O)N(C)C)n2)cc1 was Mtb growth Cornell: 52.28%; Mtb heat-shock: -28.09%. Result for Cc1cc(N2CCCCC2)c(C#N)c(C)n1 was Mtb heat-shock: 8.375%.

For O=C1CCC2(CCCN(C(=O)c3cscn3)C2)CN1CCc1c[nH]cn1 (stereo unspecified) the result was Mtb growth Cornell: 27.4%; Mtb heat-shock: -10.15%. O=C(CCN1CCCCO1)NC1CCCN(CC2CCCCC2)C1 (stereo unspecified) gave Mtb growth Cornell: -11.12%; Mtb heat-shock: 19.6%. COc1ccc(C)cc1C(C)NC(=O)Cn1ccc(=O)n(C)c1=O (stereo unspecified) gave Mtb heat-shock: 1.281%. [H][C@@]12CN(c3ncccn3)C[C@@H](C(=O)NCCOC)[C@]1([H])CCO2 read Mtb growth Cornell: -26.77%; Mtb heat-shock: 9.609%. CN(C)[C@H]1CCCCN(C(=O)c2cccc(-c3cccc(F)c3)c2)C1 gave Mtb growth Cornell: 4.863%; Mtb heat-shock: 3.372%.

Result for CNc1ccc(CC2CCCN(Cc3c[nH]cn3)C2)nn1 (stereo unspecified) was Mtb growth Cornell: -4.44%; Mtb heat-shock: -3.786%. Result for O=C(NCC1CCCO1)c1csc(Cc2ccccc2)n1 (stereo unspecified) was Mtb growth Cornell: -38.43%; Mtb heat-shock: -29.7%. Result for COCCN1CCCC12CCN(C(=O)CC1CCCC1)CC2.O=C(O)C(F)(F)F was Mtb growth Cornell: 0.8852%; Mtb heat-shock: -21.16%. Result for COCCN(C)C[C@@H]1CN(C(=O)c2ccc(O)c(C)c2)C[C@@H]1CO was Mtb growth Cornell: 38.32%; Mtb heat-shock: 13.69%. For O=C(O)c1nnn(-c2ccccc2F)c1-c1ccncc1 the result was Mtb growth Cornell: -4.023%; Mtb heat-shock: -6.444%.

Result for Cc1cc(C)nc(N2CCCC(c3nccn3CCCN(C)C)C2)c1 (stereo unspecified) was Mtb growth Cornell: 10.38%; Mtb heat-shock: -10.55%.

Repeated from the top, 3 entries:

Compound,Mtb growth Cornell,Mtb heat-shock
CCN(CC)CCNCC1CCOC(C)(C)C1 (stereo unspecified),-,-18.93%
CCc1nnc(CN2CCCC(c3cc(C(N)=O)[nH]n3)C2)o1 (stereo unspecified),11.68%,-14.44%
O=C(O)C(F)(F)F.O=C(O)C(F)(F)F.[H][C@]12CCC[C@@H](CN(C)C)[C@@]1([H])CN(Cc1ccc(OC)nc1)C2,-18.31%,-18.14%

Measurements from “University of Dundee, Small-Polar-MMV Screening Library” (2021), ChEMBL document CHEMBL3988442.